The text below walks through data of paper PMC6834667.

The chains behind the UniProt entries cited, without tags or fusion partners. Where a name states a change or a piece, a line headed by the entry shows the natural chain unless it says otherwise.
UniProt P48681: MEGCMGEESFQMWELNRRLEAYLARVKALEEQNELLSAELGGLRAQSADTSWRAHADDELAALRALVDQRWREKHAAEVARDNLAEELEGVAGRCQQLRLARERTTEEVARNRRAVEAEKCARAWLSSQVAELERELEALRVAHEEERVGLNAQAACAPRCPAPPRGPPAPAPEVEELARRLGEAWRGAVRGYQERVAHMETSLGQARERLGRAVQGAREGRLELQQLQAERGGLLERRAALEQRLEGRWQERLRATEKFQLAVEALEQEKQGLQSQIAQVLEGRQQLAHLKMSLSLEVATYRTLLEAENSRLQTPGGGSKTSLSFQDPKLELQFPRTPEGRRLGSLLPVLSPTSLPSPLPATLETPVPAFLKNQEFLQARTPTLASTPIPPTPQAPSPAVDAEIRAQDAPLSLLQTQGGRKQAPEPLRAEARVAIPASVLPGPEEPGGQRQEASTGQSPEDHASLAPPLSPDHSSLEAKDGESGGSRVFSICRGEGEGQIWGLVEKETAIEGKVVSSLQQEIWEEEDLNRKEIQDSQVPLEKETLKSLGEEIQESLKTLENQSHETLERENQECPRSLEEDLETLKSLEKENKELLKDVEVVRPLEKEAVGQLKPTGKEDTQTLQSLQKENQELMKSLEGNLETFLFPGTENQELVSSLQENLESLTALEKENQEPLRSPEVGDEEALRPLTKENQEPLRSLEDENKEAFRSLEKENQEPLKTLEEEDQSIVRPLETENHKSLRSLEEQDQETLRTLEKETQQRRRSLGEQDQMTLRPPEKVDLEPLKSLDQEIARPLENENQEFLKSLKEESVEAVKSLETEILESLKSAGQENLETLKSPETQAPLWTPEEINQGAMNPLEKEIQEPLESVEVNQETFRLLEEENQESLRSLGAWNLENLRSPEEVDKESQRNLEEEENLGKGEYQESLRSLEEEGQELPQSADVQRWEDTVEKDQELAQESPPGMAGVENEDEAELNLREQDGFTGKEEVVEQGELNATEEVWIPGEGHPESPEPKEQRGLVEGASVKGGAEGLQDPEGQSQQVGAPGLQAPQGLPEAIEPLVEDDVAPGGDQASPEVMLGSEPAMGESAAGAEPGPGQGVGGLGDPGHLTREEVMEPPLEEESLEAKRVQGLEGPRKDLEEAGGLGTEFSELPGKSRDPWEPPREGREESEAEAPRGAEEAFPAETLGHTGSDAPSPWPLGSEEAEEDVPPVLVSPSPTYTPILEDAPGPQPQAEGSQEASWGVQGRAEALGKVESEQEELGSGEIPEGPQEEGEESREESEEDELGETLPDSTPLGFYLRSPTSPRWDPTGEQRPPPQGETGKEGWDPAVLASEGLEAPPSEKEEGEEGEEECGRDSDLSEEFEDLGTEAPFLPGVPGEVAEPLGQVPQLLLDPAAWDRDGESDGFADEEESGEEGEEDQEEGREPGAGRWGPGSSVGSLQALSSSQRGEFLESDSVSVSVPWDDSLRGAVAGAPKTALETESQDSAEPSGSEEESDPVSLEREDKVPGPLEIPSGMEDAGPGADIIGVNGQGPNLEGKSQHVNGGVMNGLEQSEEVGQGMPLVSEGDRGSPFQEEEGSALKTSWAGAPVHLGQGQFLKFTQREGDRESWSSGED
UniProt Q14145: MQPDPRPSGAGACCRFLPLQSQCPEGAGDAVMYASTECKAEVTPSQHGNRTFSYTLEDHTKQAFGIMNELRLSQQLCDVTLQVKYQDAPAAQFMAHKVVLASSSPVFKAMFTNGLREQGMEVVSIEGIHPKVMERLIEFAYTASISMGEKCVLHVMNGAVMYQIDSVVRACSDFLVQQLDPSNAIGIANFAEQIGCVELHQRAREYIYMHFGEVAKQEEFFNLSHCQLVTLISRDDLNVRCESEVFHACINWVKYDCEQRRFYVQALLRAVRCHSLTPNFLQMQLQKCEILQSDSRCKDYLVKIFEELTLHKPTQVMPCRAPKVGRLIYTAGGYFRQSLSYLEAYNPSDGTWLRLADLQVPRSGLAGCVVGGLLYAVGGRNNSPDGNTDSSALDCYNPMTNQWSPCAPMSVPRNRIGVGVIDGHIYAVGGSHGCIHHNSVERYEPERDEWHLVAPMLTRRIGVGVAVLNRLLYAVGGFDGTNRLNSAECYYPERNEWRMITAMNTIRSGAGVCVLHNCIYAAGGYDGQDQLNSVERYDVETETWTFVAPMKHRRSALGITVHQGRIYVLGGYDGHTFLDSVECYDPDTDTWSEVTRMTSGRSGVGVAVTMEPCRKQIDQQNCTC

The experiment concerns the target Nestin-ΔESGE (deletion mutant) (UniProt P48681). Briefly: co-IP; Myc-Nestin or its mutants transfected into NSCLC cells; whole-cell lysates in IP lysis buffer immunoprecipitated with anti-Myc and Protein G magnetic beads, overnight at 4 °C; blotted for endogenous proteins.

Results are given in words; binding and its absence hold for the method and conditions named. In cells and extracts the contact can be indirect.

“Kelch-like ECH-associated protein 1 (Keap1), wild type, endogenous in H1299 (from UniProt Q14145 1-624)”: the binding result is reported as “no binding”.

Turning to “Kelch-like ECH-associated protein 1 (Keap1) G333C, endogenous in A549 (from UniProt Q14145 1-624)”, the binding result is “no binding”.
